This note sets out measurements from US20030054520A1, “Recombinant enzymes having improved NAD (H) affinity” (DEGUSSA AG, priority 2000, published 2003).

Each structure is given as a SMILES string. Some results are limits rather than exact numbers.

In the series the test system is G38D mutein of recADH. The experiment in a line: Stereoselectivity: enzymatic reduction with coenzyme regeneration, ee of the product by chiral GC. Type of series: biochemical. As to conditions: 10 mM keto substrate, NADH regenerated with formate/formate dehydrogenase; ee(R).
As for `CC(=O)c1ccc(Cl)cc1` [4-chloroacetophenone], the “ee value of the product” value was greater than 99%.

Take `CCOC(=O)C(=O)CC` [2-Oxobutyric acid ethyl ester]: the “ee value of the product” value was greater than 99%.

Consider `CCCCCC(C)=O` [2-Heptanone], for which the “ee value of the product” value is greater than 99%.

For `CC(=O)c1ccccc1` [Acetophenone], the “ee value of the product” value was greater than 99%.

Regarding `CCCCC(C)=O` [2-Hexanone], the “ee value of the product” value was greater than 99%.
